Data reported in article PMC8375061.
Results are given in words; binding and its absence hold for the method and conditions named. Binding seen in cells or lysates may run through a third protein. These calls come from enrichment with a bait or labelling near it, and not all partners need be listed. No binding means not detected with the bait.

B1: legumain (enzyme, UniProt Q99538 18-323)
chain: VPIDDPEDGGKHWVVIVAGSNGWYNYRHQADACHAYQIIHRNGIPDEQIVVMMYDDIAYSEDNPTPGIVINRPNGTDVYQGVPKDYTGEDVTPQNFLAVLRGDAEAVKGIGSGKVLKSGPQDHVFIYFTDHGSTGILVFPNEDLHVKDLNETIHYMYKHKMYRKMVFYIEACESGSMMNHLPDNINVYATTAANPRESSYACYYDEKRSTYLGDWYSVNWMEDSDVEDLTKETLHKQYHLVKSHTNTSHVMQYGNKTISTMKVMQFQGMKRKASSPVPLPPVTHLDLTPSPDVPLTIMKRKLMNTN
B2: human lysozyme (enzyme, UniProt P61626 19-148)
chain: KVFERCELARTLKRLGMDGYRGISLANWMCLAKWESGYNTRATNYNAGDRSTDYGIFQINSRYWCNDGKTPGAVNACHLSCSALLQDNIADAVACAKRVVRDPQGIRAWVAWRNRCQNRDVRQYVQGCGV

Molecular target: recombinant LprI_01601 from Campylobacter concisus ESOS44-1 (Campylobacter concisus ESOS44-1)
Assay: affinity purification with mass spectrometry; His-tagged LprI_01601 as bait, incubated with primary human macrophage non-detergent cell lysates, precipitated with magnetic bead conjugated anti-His-tag monoclonal antibody; fractions analysed by LC/MS-MS; repeated twice; negative control anti-His-tag IP without LprI_01601; only the target purified

Binder	binding
B1	binds
B2	no binding
